# Measurements taken from article PMC5300874.
# By UniProt entry, the sequences of proteins in these tests, tags left out. Where a name states a change or a piece, a line headed by the entry shows the natural chain unless it says otherwise.
# UniProt Q8TRB6: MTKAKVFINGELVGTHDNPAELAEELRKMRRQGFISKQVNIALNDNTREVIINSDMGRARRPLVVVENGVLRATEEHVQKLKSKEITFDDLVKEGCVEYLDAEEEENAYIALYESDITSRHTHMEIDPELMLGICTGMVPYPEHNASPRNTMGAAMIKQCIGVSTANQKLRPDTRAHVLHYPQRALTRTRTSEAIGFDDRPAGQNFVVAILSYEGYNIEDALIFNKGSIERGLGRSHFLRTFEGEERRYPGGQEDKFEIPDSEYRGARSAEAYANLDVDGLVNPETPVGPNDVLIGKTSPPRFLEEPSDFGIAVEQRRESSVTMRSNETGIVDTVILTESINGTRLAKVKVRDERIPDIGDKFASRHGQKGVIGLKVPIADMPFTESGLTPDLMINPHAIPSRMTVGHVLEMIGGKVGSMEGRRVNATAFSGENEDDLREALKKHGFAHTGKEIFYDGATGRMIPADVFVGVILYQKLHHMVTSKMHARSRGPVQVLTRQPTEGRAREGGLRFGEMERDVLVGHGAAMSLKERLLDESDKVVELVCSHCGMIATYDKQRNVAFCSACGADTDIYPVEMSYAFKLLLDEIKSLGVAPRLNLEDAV
# UniProt Q8TSS4: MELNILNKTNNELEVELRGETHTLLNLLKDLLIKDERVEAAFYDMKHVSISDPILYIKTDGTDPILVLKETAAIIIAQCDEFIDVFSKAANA
# Results are given in words; binding and its absence hold for the method and conditions named. Binding seen in cells or lysates may run through a third protein. For some of these results: Binding calls can cover weak binding; strength is not graded here. For some of these results: Sequences can lack the tags named with a protein.
# T1: (His)Rpo3mFeS2 (Methanosarcina acetivorans) (UniProt P0CG28)
# T1 sequence: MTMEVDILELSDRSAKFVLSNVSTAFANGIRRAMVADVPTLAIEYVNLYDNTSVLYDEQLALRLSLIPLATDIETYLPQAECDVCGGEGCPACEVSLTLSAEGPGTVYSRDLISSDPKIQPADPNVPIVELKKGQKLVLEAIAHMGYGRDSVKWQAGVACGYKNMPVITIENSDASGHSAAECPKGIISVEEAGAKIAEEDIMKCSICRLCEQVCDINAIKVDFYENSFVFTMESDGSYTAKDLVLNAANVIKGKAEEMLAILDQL
# T2: (His)Rpo3, N-terminally histidine-tagged wild-type Rpo3 expressed in Methanosarcina acetivorans (Methanosarcina acetivorans) (UniProt P0CG28)
# T2 sequence: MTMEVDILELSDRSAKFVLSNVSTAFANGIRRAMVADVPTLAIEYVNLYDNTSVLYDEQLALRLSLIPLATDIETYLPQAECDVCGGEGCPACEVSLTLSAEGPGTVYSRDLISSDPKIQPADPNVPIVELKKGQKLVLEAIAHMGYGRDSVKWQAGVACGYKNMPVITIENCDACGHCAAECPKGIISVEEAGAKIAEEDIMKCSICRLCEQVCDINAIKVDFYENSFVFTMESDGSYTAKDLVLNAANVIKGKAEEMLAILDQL
# T3: (His)Rpo3mFeS1 (Methanosarcina acetivorans) (UniProt P0CG28)
# T3 sequence: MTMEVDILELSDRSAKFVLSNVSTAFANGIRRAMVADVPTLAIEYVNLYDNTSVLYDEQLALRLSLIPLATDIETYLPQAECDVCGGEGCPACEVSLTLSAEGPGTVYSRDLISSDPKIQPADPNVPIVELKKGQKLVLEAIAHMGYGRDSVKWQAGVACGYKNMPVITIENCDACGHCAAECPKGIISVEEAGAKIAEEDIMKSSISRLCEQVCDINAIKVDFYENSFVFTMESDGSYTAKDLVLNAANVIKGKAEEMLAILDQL
# Legend:
# [1] = molecular target: (His)Rpo3ΔFeS1 (Methanosarcina acetivorans) (UniProt P0CG28); assay: condition: only in the merodiploid strain, in competition with native Rpo3; pull-down; merodiploid M. acetivorans strains (native Rpo3 also present), tetracycline-induced; (His)Rpo3 variant held on Ni2+-agarose from lysate, anaerobic; eluates normalised to 15 ng (His)Rpo3; western blot for Rpo11, Rpo2′, Rpo1″
# [2] = molecular target: (His)Rpo3ΔD3 (Methanosarcina acetivorans) (UniProt P0CG28); assay: pull-down; merodiploid M. acetivorans strains (native Rpo3 also present), tetracycline-induced; (His)Rpo3 variant held on Ni2+-agarose from lysate, anaerobic; eluates normalised to 15 ng (His)Rpo3; western blot for Rpo11, Rpo2′, Rpo1″
# [3] = molecular target: (His)Rpo3ΔD3 (Methanosarcina acetivorans) (UniProt P0CG28); assay: pull-down; gene replacement M. acetivorans strains (native rpo3 replaced); (His)Rpo3 variant held on Ni2+-agarose from lysate, anaerobic; eluates normalised to Rpo3; western blot for Rpo11, Rpo2′, Rpo1″
# [4] = molecular target: (His)Rpo3ΔFeS1 (Methanosarcina acetivorans) (UniProt P0CG28); assay: as above
# [5] = molecular target: T1, (His)Rpo3mFeS2 (Methanosarcina acetivorans); assay: pull-down; merodiploid M. acetivorans strains (native Rpo3 also present), tetracycline-induced; (His)Rpo3 variant held on Ni2+-agarose from lysate, anaerobic; eluates normalised to 15 ng (His)Rpo3; western blot for Rpo11, Rpo2′, Rpo1″
# [6] = molecular target: T2, (His)Rpo3, N-terminally histidine-tagged wild-type Rpo3 expressed in Methanosarcina acetivorans (Methanosarcina acetivorans); assay: as above
# [7] = molecular target: (His)Rpo3ΔFeS2 (Methanosarcina acetivorans) (UniProt P0CG28); assay: as above
# [8] = molecular target: (His)Rpo3ΔFeS1 (Methanosarcina acetivorans) (UniProt P0CG28); assay: as above
# [9] = molecular target: T3, (His)Rpo3mFeS1 (Methanosarcina acetivorans); assay: as above
# [10] = molecular target: T1, (His)Rpo3mFeS2 (Methanosarcina acetivorans); assay: pull-down; gene replacement M. acetivorans strains (native rpo3 replaced); (His)Rpo3 variant held on Ni2+-agarose from lysate, anaerobic; eluates normalised to Rpo3; western blot for Rpo11, Rpo2′, Rpo1″
# [11] = molecular target: T2, (His)Rpo3, N-terminally histidine-tagged wild-type Rpo3 expressed in Methanosarcina acetivorans (Methanosarcina acetivorans); assay: as above
# [12] = molecular target: Rpo11(His), histidine-tagged Rpo11 of Methanosarcina acetivorans RNA polymerase (Methanosarcina acetivorans); assay: pull-down + SEC; Rpo3 variant coexpressed with Rpo11(His) in E. coli; Rpo11(His) purified anaerobically by Ni2+ affinity and size-exclusion chromatography
Molecule,binding [2],binding [3],binding [4],binding [12],further results
"Rpo3mFeS1 (recombinant, E. coli) (protein, UniProt P0CG28 1-266) MTMEVDILELSDRSAKFVLSNVSTAFANGIRRAMVADVPTLAIEYVNLYDNTSVLYDEQLALRLSLIPLATDIETYLPQAECDVCGGEGCPACEVSLTLSAEGPGTVYSRDLISSDPKIQPADPNVPIVELKKGQKLVLEAIAHMGYGRDSVKWQAGVACGYKNMPVITIENCDACGHCAAECPKGIISVEEAGAKIAEEDIMKSSISRLCEQVCDINAIKVDFYENSFVFTMESDGSYTAKDLVLNAANVIKGKAEEMLAILDQL",,,,binds,
"Rpo3mFeS2 (recombinant, E. coli) (protein, UniProt P0CG28 1-266) MTMEVDILELSDRSAKFVLSNVSTAFANGIRRAMVADVPTLAIEYVNLYDNTSVLYDEQLALRLSLIPLATDIETYLPQAECDVCGGEGCPACEVSLTLSAEGPGTVYSRDLISSDPKIQPADPNVPIVELKKGQKLVLEAIAHMGYGRDSVKWQAGVACGYKNMPVITIENSDASGHSAAECPKGIISVEEAGAKIAEEDIMKCSICRLCEQVCDINAIKVDFYENSFVFTMESDGSYTAKDLVLNAANVIKGKAEEMLAILDQL",,,,binds,

# More lines, main results first:
binding [2],binding [3],binding [4],binding [12],Molecule,further results
binds weakly,binds,binds,,"Rpo2′ (RpoB′), catalytic subunit of Methanosarcina acetivorans RNA polymerase (from UniProt Q8TRB6 1-604)",binding [1]: no binding
binds,binds,binds,,native Rpo11 of Methanosarcina acetivorans RNA polymerase (from UniProt Q8TSS4),binding [5]: binds; binding [6]: binds; binding [7]: binds; binding [8]: binds; binding [9]: binds; binding [10]: binds; binding [11]: binds
